system: MDA-MB-231; assay: Cell viability (CellTiter-Blue, 72 h), MDA-MB-231 breast cancer cells; format: cell-based; details: MDA-MB-231, 1% FBS
Experimental: The cell lines tested in this Example were as follows. Breast cancer: MDA-MB-231; SK-BR3; and BT474. Liver cancer: HepG2.
The phytocannabinoids were tested alone and in various ratioed combinations in media containing final concentrations of 10% and 1% foetal bovine serum at 72 h for the breast and prostate cancer lines and 1% foetal bovine serum for the liver cancer line HepG2.
Each tumour cell line was maintained in vitro in RPMI 1640+10% heat inactivated FBS and 2 mM L-glutamine (growth media) at 37° C. in 5% CO2 and humidified conditions. The cells were harvested, washed, re-suspended into growth medium and counted. The cells were re-suspended into assay media (RPMI 1640+5% heat inactivated FBS+ and 2 mM L-glutamine) at 8×104-2×10^5 cells/ml (dependent upon cell type) and plated into the middle 240 wells of 384 well tissue culture plates (Corning CellBind, black-wall plates) 12.5 μl/well aliquots; 62.5 μl of growth media was aliquoted into the outer wells. There were 4 plates for each cell line. The plates were incubated overnight at 37° C., in 5% humidified CO2.
The phytocannabinoid test compounds were prepared in 100% DMSO vehicle at a stock concentration of 10 mM.
Starting with the 10 mM stock, the compounds were diluted to 125 μM in FBS-free growth media.
These were diluted in FBS-free growth media to 125 μM before serial dilution.
5 volumes of CBD 10 mM stock was added to 1 volume of the other agent (also at 10 mM) and 4 volumes of DMSO. This made a final concentration of 5 mM:1 mM. This was then diluted in FBS-free growth media so the top concentration of CBD would be 125 μM (before serial dilution). Each compound and compound combination stock was serially diluted in FBS-free growth media (containing 1.25% v/v DMSO) from 125 μM to 41.7, 13.89, 4.63, 1.54, 0.514, 0.171, 0.057 and 0.019 μM (1.25× final assay concentrations). Vehicle was prepared at equivalent dilutions in assay media. The top final concentration of compound in the assay was always 100 μM so CBD5:1CBG was 100 μM CBD and 20 μM CBG.
Taxotere SOC was prepared at a stock concentration of 1 mM in 100% DMSO. Taxotere was serially diluted from the stock solution into FBS-free growth media to 12.5 μM, then serially diluted in FBS-free growth media containing 1.25% DMSO to 4.17, 1.39, 0.46, 0.154, 0.051, 0.017, 0.006, 0.002 μM (1.25× final assay concentrations).
The plates were incubated for 72 h at 37° C. in 5% humidified CO2. To develop the plates, at 72 h, 10 μl of CellTiter-Blue™ reagent was added to each test/blank well. The plates were incubated at 37° C., 5% humidified CO2. Fluorescence was measured using a Flex II Station plate reader (570 nm excitation wavelength, 600 nm emission wavelength, 590 nm cut-off) after 3 h. […]
The raw data values expressed in relative fluorescent units were normalised to the vehicle for each individual plate and any reduction in fluorescence indicated a decrease in viability.
The data were analysed in GraphPad PRISM using a non-linear sigmoidal plot with variable slope (asymmetric five point linear regression) and where possible an IC50 value for each single compound and combination was generated. […]
The data was formatted in Excel for each assay plate so that the average effect at each concentration for each separate phytocannabinoid and each of the combinations could be determined. […]

Structure (SMILES) | m (shape parameter of dose effect curve)
C=C(C)[C@@H]1CCC(C)=C[C@H]1c1c(O)cc(CCCCC)cc1O [CBD, Cannabidiol] | 0.78
C=C(C)[C@@H]1CCC(C)=C[C@H]1c1c(O)cc(CCCCC)c(C(=O)O)c1O [CBDA, Cannabidiolic acid] | 0.86
CCCCCc1cc(O)c(C/C=C(\C)CCC=C(C)C)c(O)c1 [CBG, Cannabigerol] | 2.11
CCCCCc1cc(O)c(C/C=C(\C)CCC=C(C)C)c(O)c1C(=O)O [CBGA, Cannabigerolic acid] | 2.10
CCCc1cc(O)c2c(c1)OC(C)(C)[C@@H]1CCC(C)=C[C@@H]21 [THCV, Tetrahydrocannabivarin] | 2.21

Reference: patent US9962341B2, “Active pharmaceutical ingredient (API) comprising cannabinoids for use in the treatment of cancer” (GW Pharma Limited, priority 2014, dated 2018)
